{
  "source": "paper PMC5433425",
  "about": "(PeerJ, 2017)",
  "experiment_in_all_cases": "EtBr efflux by real-time fluorometry",
  "key": {"[1]": {"system": "E. coli AG100", "settings": "80 µM"}, "[2]": {"system": "E. coli AG100A", "settings": "20 µM, + glucose"}, "[3]": {"system": "E. coli AG100tet", "settings": "80 µM, + glucose"}},
  "note": "Further values from the same series stand in other lists.",
  "data": [
    {"smiles": "CN(C)CCCN1c2ccccc2Sc2ccc(Cl)cc21", "note": "[CPZ, chlorpromazine]", "values": [
      {"measurement": "EtBr fluorescence (Channel Cycling A.530/585hp)", "setting": "[1]; cycle 42, without glucose", "result": 38.1996},
      {"measurement": "EtBr fluorescence (Channel Cycling A.530/585hp)", "setting": "[1]; cycle 43, + glucose", "result": 37.9166},
      {"measurement": "EtBr fluorescence (Channel Cycling A.530/585hp)", "setting": "[1]; cycle 43, without glucose", "result": 39.3026},
      {"measurement": "EtBr fluorescence (Channel Cycling A.530/585hp)", "setting": "[1]; cycle 44, + glucose", "result": 38.1566},
      {"measurement": "EtBr fluorescence (Channel Cycling A.530/585hp)", "setting": "[1]; cycle 44, without glucose", "result": 39.0707},
      {"measurement": "EtBr fluorescence (Channel Cycling A.530/585hp)", "setting": "[1]; cycle 45, + glucose", "result": 37.8682},
      {"measurement": "EtBr fluorescence (Channel Cycling A.530/585hp)", "setting": "[1]; cycle 45, without glucose", "result": 39.652},
      {"measurement": "EtBr fluorescence (Channel Cycling A.530/585hp)", "setting": "[1]; cycle 46, + glucose", "result": 38.1527},
      {"measurement": "EtBr fluorescence (Channel Cycling A.530/585hp)", "setting": "[1]; cycle 46, without glucose", "result": 39.8398},
      {"measurement": "EtBr fluorescence (Channel Cycling A.530/585hp)", "setting": "[1]; cycle 47, + glucose", "result": 38.1024},
      {"measurement": "EtBr fluorescence (Channel Cycling A.530/585hp)", "setting": "[1]; cycle 47, without glucose", "result": 39.9177},
      {"measurement": "EtBr fluorescence (Channel Cycling A.530/585hp)", "setting": "[1]; cycle 48, + glucose", "result": 38.2927},
      {"measurement": "EtBr fluorescence (Channel Cycling A.530/585hp)", "setting": "[1]; cycle 48, without glucose", "result": 40.7272},
      {"measurement": "EtBr fluorescence (Channel Cycling A.530/585hp)", "setting": "[1]; cycle 49, + glucose", "result": 38.1144},
      {"measurement": "EtBr fluorescence (Channel Cycling A.530/585hp)", "setting": "[1]; cycle 49, without glucose", "result": 41.1866},
      {"measurement": "EtBr fluorescence (Channel Cycling A.530/585hp)", "setting": "[1]; cycle 50, + glucose", "result": 38.0575},
      {"measurement": "EtBr fluorescence (Channel Cycling A.530/585hp)", "setting": "[1]; cycle 50, without glucose", "result": 41.1014},
      {"measurement": "EtBr fluorescence (Channel Cycling A.530/585hp)", "setting": "[1]; cycle 51, + glucose", "result": 38.3115},
      {"measurement": "EtBr fluorescence (Channel Cycling A.530/585hp)", "setting": "[1]; cycle 51, without glucose", "result": 41.3934},
      {"measurement": "EtBr fluorescence (Channel Cycling A.530/585hp)", "setting": "[1]; cycle 52, + glucose", "result": 38.3484},
      {"measurement": "EtBr fluorescence (Channel Cycling A.530/585hp)", "setting": "[1]; cycle 52, without glucose", "result": 42.2452},
      {"measurement": "EtBr fluorescence (Channel Cycling A.530/585hp)", "setting": "[1]; cycle 53, + glucose", "result": 38.0995},
      {"measurement": "EtBr fluorescence (Channel Cycling A.530/585hp)", "setting": "[1]; cycle 53, without glucose", "result": 42.5637},
      {"measurement": "EtBr fluorescence (Channel Cycling A.530/585hp)", "setting": "[1]; cycle 54, + glucose", "result": 38.0306},
      {"measurement": "EtBr fluorescence (Channel Cycling A.530/585hp)", "setting": "[1]; cycle 54, without glucose", "result": 42.9741},
      {"measurement": "EtBr fluorescence (Channel Cycling A.530/585hp)", "setting": "[1]; cycle 55, + glucose", "result": 38.6248},
      {"measurement": "EtBr fluorescence (Channel Cycling A.530/585hp)", "setting": "[1]; cycle 55, without glucose", "result": 43.3288},
      {"measurement": "EtBr fluorescence (Channel Cycling A.530/585hp)", "setting": "[1]; cycle 56, + glucose", "result": 38.4331},
      {"measurement": "EtBr fluorescence (Channel Cycling A.530/585hp)", "setting": "[1]; cycle 56, without glucose", "result": 43.4008},
      {"measurement": "EtBr fluorescence (Channel Cycling A.530/585hp)", "setting": "[1]; cycle 57, + glucose", "result": 38.2885},
      {"measurement": "EtBr fluorescence (Channel Cycling A.530/585hp)", "setting": "[1]; cycle 57, without glucose", "result": 43.717},
      {"measurement": "EtBr fluorescence (Channel Cycling A.530/585hp)", "setting": "[1]; cycle 58, + glucose", "result": 38.3682},
      {"measurement": "EtBr fluorescence (Channel Cycling A.530/585hp)", "setting": "[1]; cycle 58, without glucose", "result": 44.2229},
      {"measurement": "EtBr fluorescence (Channel Cycling A.530/585hp)", "setting": "[1]; cycle 59, + glucose", "result": 38.1533},
      {"measurement": "EtBr fluorescence (Channel Cycling A.530/585hp)", "setting": "[1]; cycle 59, without glucose", "result": 44.7748},
      {"measurement": "EtBr fluorescence (Channel Cycling A.530/585hp)", "setting": "[1]; cycle 60, + glucose", "result": 37.8112},
      {"measurement": "EtBr fluorescence (Channel Cycling A.530/585hp)", "setting": "[1]; cycle 60, without glucose", "result": 45.3609},
      {"measurement": "EtBr fluorescence (Channel Cycling A.530/585hp)", "setting": "[1]; cycle 61, + glucose", "result": 37.7385},
      {"measurement": "EtBr fluorescence (Channel Cycling A.530/585hp)", "setting": "[1]; cycle 61, without glucose", "result": 45.87},
      {"measurement": "EtBr fluorescence (Channel Cycling A.530/585hp)", "setting": "[2]; cycle 4", "result": 3.646},
      {"measurement": "EtBr fluorescence (Channel Cycling A.530/585hp)", "setting": "[2]; cycle 5", "result": 3.591},
      {"measurement": "EtBr fluorescence (Channel Cycling A.530/585hp)", "setting": "[2]; cycle 6", "result": 3.585},
      {"measurement": "EtBr fluorescence (Channel Cycling A.530/585hp)", "setting": "[2]; cycle 7", "result": 3.6117},
      {"measurement": "EtBr fluorescence (Channel Cycling A.530/585hp)", "setting": "[2]; cycle 8", "result": 3.567},
      {"measurement": "EtBr fluorescence (Channel Cycling A.530/585hp)", "setting": "[2]; cycle 45", "result": 3.83},
      {"measurement": "EtBr fluorescence (Channel Cycling A.530/585hp)", "setting": "[2]; cycle 46", "result": 3.859},
      {"measurement": "EtBr fluorescence (Channel Cycling A.530/585hp)", "setting": "[2]; cycle 47", "result": 3.941},
      {"measurement": "EtBr fluorescence (Channel Cycling A.530/585hp)", "setting": "[2]; cycle 48", "result": 3.831},
      {"measurement": "EtBr fluorescence (Channel Cycling A.530/585hp)", "setting": "[2]; cycle 49", "result": 3.802},
      {"measurement": "EtBr fluorescence (Channel Cycling A.530/585hp)", "setting": "[2]; cycle 50", "result": 3.904},
      {"measurement": "EtBr fluorescence (Channel Cycling A.530/585hp)", "setting": "[2]; cycle 51", "result": 3.913},
      {"measurement": "EtBr fluorescence (Channel Cycling A.530/585hp)", "setting": "[2]; cycle 52", "result": 3.836},
      {"measurement": "EtBr fluorescence (Channel Cycling A.530/585hp)", "setting": "[2]; cycle 53", "result": 3.751},
      {"measurement": "EtBr fluorescence (Channel Cycling A.530/585hp)", "setting": "[2]; cycle 54", "result": 3.734},
      {"measurement": "EtBr fluorescence (Channel Cycling A.530/585hp)", "setting": "[2]; cycle 55", "result": 3.755},
      {"measurement": "EtBr fluorescence (Channel Cycling A.530/585hp)", "setting": "[2]; cycle 56", "result": 3.914},
      {"measurement": "EtBr fluorescence (Channel Cycling A.530/585hp)", "setting": "[2]; cycle 57", "result": 3.757},
      {"measurement": "EtBr fluorescence (Channel Cycling A.530/585hp)", "setting": "[2]; cycle 58", "result": 3.7741},
      {"measurement": "EtBr fluorescence (Channel Cycling A.530/585hp)", "setting": "[2]; cycle 59", "result": 3.81},
      {"measurement": "EtBr fluorescence (Channel Cycling A.530/585hp)", "setting": "[2]; cycle 60", "result": 3.797},
      {"measurement": "EtBr fluorescence (Channel Cycling A.530/585hp)", "setting": "[2]; cycle 61", "result": 3.749},
      {"measurement": "Fluorescence raw data, Channel Cycling A.530/585hp", "setting": "[3]; cycle 4", "result": 6.339},
      {"measurement": "Fluorescence raw data, Channel Cycling A.530/585hp", "setting": "[3]; cycle 5", "result": 6.387},
      {"measurement": "Fluorescence raw data, Channel Cycling A.530/585hp", "setting": "[3]; cycle 6", "result": 6.286},
      {"measurement": "Fluorescence raw data, Channel Cycling A.530/585hp", "setting": "[3]; cycle 7", "result": 6.432},
      {"measurement": "Fluorescence raw data, Channel Cycling A.530/585hp", "setting": "[3]; cycle 8", "result": 6.329},
      {"measurement": "Fluorescence raw data, Channel Cycling A.530/585hp", "setting": "[3]; cycle 45", "result": 6.719},
      {"measurement": "Fluorescence raw data, Channel Cycling A.530/585hp", "setting": "[3]; cycle 46", "result": 6.778},
      {"measurement": "Fluorescence raw data, Channel Cycling A.530/585hp", "setting": "[3]; cycle 47", "result": 6.757},
      {"measurement": "Fluorescence raw data, Channel Cycling A.530/585hp", "setting": "[3]; cycle 48", "result": 6.7446},
      {"measurement": "Fluorescence raw data, Channel Cycling A.530/585hp", "setting": "[3]; cycle 49", "result": 6.678},
      {"measurement": "Fluorescence raw data, Channel Cycling A.530/585hp", "setting": "[3]; cycle 50", "result": 6.568},
      {"measurement": "Fluorescence raw data, Channel Cycling A.530/585hp", "setting": "[3]; cycle 51", "result": 6.617},
      {"measurement": "Fluorescence raw data, Channel Cycling A.530/585hp", "setting": "[3]; cycle 52", "result": 6.557},
      {"measurement": "Fluorescence raw data, Channel Cycling A.530/585hp", "setting": "[3]; cycle 53", "result": 6.518},
      {"measurement": "Fluorescence raw data, Channel Cycling A.530/585hp", "setting": "[3]; cycle 54", "result": 6.561},
      {"measurement": "Fluorescence raw data, Channel Cycling A.530/585hp", "setting": "[3]; cycle 55", "result": 6.5737},
      {"measurement": "Fluorescence raw data, Channel Cycling A.530/585hp", "setting": "[3]; cycle 56", "result": 6.573},
      {"measurement": "Fluorescence raw data, Channel Cycling A.530/585hp", "setting": "[3]; cycle 57", "result": 6.507},
      {"measurement": "Fluorescence raw data, Channel Cycling A.530/585hp", "setting": "[3]; cycle 58", "result": 6.443},
      {"measurement": "Fluorescence raw data, Channel Cycling A.530/585hp", "setting": "[3]; cycle 59", "result": 6.441},
      {"measurement": "Fluorescence raw data, Channel Cycling A.530/585hp", "setting": "[3]; cycle 60", "result": 6.434},
      {"measurement": "Fluorescence raw data, Channel Cycling A.530/585hp", "setting": "[3]; cycle 61", "result": 6.331}
    ]}
  ]
}
